Experimental data: PubChem BioAssay AID1259424 (University of Nebraska Medical Center, 2018)
Assay: 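Find knockdowns that reproduce the expression shifts seen after KSR1 loss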 (primary screen). Cells: human HCT116 colon cancer cells. Knock-down reagent: siRNA pool against human genes, 50 nM. Detection: 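Six signature mRNAs by branched-DNA multiplex assay, scaled to two housekeeping genes and non-targeting median, log2; matched to mean KSR1 knockdown profile by Pearson correlation and euclidean distance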. Direction: mean correlation with KSR1 profile and KSR1 correlation: higher = expression change more like KSR1 knockdown; mean distance from KSR1 profile: higher = expression change less like KSR1 knockdown.
Here is an unselected part of about 14,000 reagents. 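Higher correlation or smaller distance means closer resemblance to KSR1 loss; control wells, including KSR1 knockdowns, recur on many plates.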 Not stated in the record: the time to read-out.

gene knocked down	mean correlation with KSR1 profile	mean distance from KSR1 profile	KSR1 correlation, replicate 1	KSR1 correlation, replicate 2	KSR1 correlation, replicate 3
ANOS1 (anosmin 1)	0.0398	2.13	0.0414	0.0115	-0.00896
RB1 (RB transcriptional corepressor 1)	0.0928	2.13	0.179	0.147	-0.0235
PDIA2 (protein disulfide isomerase family A member 2)	0.106	2.25	0.0686	0.154	0.0729
ASCC1 (activating signal cointegrator 1 complex subunit 1)	-0.393	2.59	-0.574	-0.381	-0.186
DDRGK1 (DDRGK domain containing 1)	-0.66	1.89	-0.738	-0.611	-0.615
DVL1 (dishevelled segment polarity protein 1)	0.679	0.792	0.661	0.491	0.456
HECA (HECA ribonucleoprotein granule regulator)	-0.32	1.79	-0.172	-0.467	-0.243
ELMOD1 (ELMO domain containing 1)	-0.0439	1.24	0.267	-0.58	-0.222
SIAE (sialic acid acetylesterase)	-0.658	2.71	-0.462	-0.622	-0.51
CHKA (choline kinase alpha)	0.806	1.7	0.722	0.858	0.655
MBD3 (methyl-CpG binding domain protein 3)	0.118	2.65	0.123	0.0794	-0.0731
SPIDR (scaffold protein involved in DNA repair)	-0.363	1.64	-0.376	-0.31	-0.319
IFNGR1 (interferon gamma receptor 1)	-0.00461	1.33	-0.0988	0.00344	0.116
KCNE2	-0.211	2.37	-0.031	-0.359	-0.342
CAAP1 (caspase activity and apoptosis inhibitor 1)	0.679	2.31	0.657	0.774	0.621
WDR74 (WD repeat domain 74)	-0.331	2.87	-0.366	-0.228	-0.518
STAU2 (staufen double-stranded RNA binding protein 2)	0.0592	2.66	0.0277	-0.138	-0.145
RAB28 (RAB28, member RAS oncogene family)	0.699	0.622	0.419	0.777	0.517
TES (testin LIM domain protein)	-0.219	2.29	-0.0187	-0.414	-0.107
SARDH (sarcosine dehydrogenase)	0.623	2.26	0.646	0.623	0.586
MTBP (MDM2 binding protein)	-0.845	1.9	-0.526	-0.792	-0.802
SYTL2 (synaptotagmin like 2)	-0.313	2.73	-0.682	-0.207	-0.451
DIO2 (iodothyronine deiodinase 2)	-0.572	4.97	-0.52	-0.567	-0.601
TBCK (TBC1 domain containing kinase)	0.709	2.59	0.565	0.841	0.498

Part of the list above, showing only “mean correlation with KSR1 profile”.
CHKA (choline kinase alpha)	0.806
MBD3 (methyl-CpG binding domain protein 3)	0.118

More entries:
gene knocked down	mean correlation with KSR1 profile	mean distance from KSR1 profile	KSR1 correlation, replicate 1	KSR1 correlation, replicate 2	KSR1 correlation, replicate 3
AMPD3 (adenosine monophosphate deaminase 3)	0.266	1.65	0.18	0.397	0.637
ELP2 (elongator acetyltransferase complex subunit 2)	-0.451	2.14	-0.44	-0.527	-0.156
TEKT1 (tektin 1)	-0.0625	1.99	0.112	-0.394	-0.188
CCNB1IP1 (cyclin B1 interacting protein 1)	-0.575	2.98	-0.715	-0.342	-0.375
NT5C2 (5'-nucleotidase, cytosolic II)	0.175	1.54	0.218	0.0148	0.259
TMEM50A (transmembrane protein 50A)	-0.342	4.4	-0.00234	-0.585	-0.28
OSBPL3 (oxysterol binding protein like 3)	-0.119	1.61	0.268	-0.421	-0.202
SERPIND1 (serpin family D member 1)	-0.113	3.77	-0.432	0.16	0.021
AHRR (aryl hydrocarbon receptor repressor)	-0.0406	2.34	0.0613	-0.0103	-0.196
GPATCH3 (G-patch domain containing 3)	-0.397	6.81	-0.185	-0.2	-0.204
ARRDC1-AS1 (ARRDC1 antisense RNA 1)	0.243	2.31	0.168	0.354	-0.0606
FCSK (fucose kinase)	0.258	4.15	0.00654	0.292	0.196
FHIT (fragile histidine triad diadenosine triphosphatase)	0.108	2.18	0.141	0.375	0.0338
SDHA (succinate dehydrogenase complex flavoprotein subunit A)	-0.0806	1.34	0.0389	-0.224	0.251
RAB34 (RAB34, member RAS oncogene family)	0.836	1.64	0.72	0.823	0.876
HTR1B (5-hydroxytryptamine receptor 1B)	0.2	2.53	-0.118	0.434	0.376
PIK3C2A	0.551	3.28	0.572	0.659	0.493
KPNA4 (karyopherin subunit alpha 4)	-0.0264	1.68	-0.205	-0.0257	0.00605
RTP4 (receptor transporter protein 4)	-0.165	1.77	-0.2	-0.408	0.00443
ADH5 (alcohol dehydrogenase 5 (class III), chi polypeptide)	-0.103	3.16	-0.202	-0.17	-0.0545
PPP2R2B (protein phosphatase 2 regulatory subunit Bbeta)	-0.281	2.2	-0.057	-0.762	-0.24
RAB11FIP3 (RAB11 family interacting protein 3)	-0.119	2.77	-0.181	-0.121	0.157
PDP1 (pyruvate dehydrogenase phosphatase catalytic subunit 1)	-0.0757	2.94	-0.105	-0.422	0.122
PLRG1 (pleiotropic regulator 1)	-0.478	1.72	-0.223	-0.376	-0.773
CYP2A7 (cytochrome P450 family 2 subfamily A member 7)	0.218	1.72	-0.000627	0.143	0.244
KCNV1	-0.0293	2.19	-0.042	-0.154	-0.156
